# According to the supplement of paper PMC3334620:
# In all, about 33,000 sequences were measured (“E-score (-0.5 to 0.5)”: median about -0.0034, highest 2% from about 0.25 on). The list shows a part of the results.
# Target: T1, Yap3 (UniProt P38749)
# T1 sequence: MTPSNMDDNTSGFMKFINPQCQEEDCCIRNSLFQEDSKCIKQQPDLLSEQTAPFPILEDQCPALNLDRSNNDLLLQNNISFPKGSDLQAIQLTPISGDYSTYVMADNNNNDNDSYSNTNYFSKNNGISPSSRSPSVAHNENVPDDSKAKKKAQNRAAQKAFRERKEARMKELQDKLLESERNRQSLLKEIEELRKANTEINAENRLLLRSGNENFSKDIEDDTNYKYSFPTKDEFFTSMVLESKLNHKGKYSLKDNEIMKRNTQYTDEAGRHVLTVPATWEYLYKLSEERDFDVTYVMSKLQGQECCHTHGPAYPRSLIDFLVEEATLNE
# Experiment: PBM E-score (8-mer binding enrichment) (E-score (-0.5 to 0.5)); higher = stronger / more preferred TF binding
# Conditions: protein concentration: 100 nM; construct: GST-full length
# Summary of the method: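 Detection of bound protein used fluorescent anti-GST, with scans normalised by masliner. The proteins were GST-tagged yeast transcription factors applied at about 100-200 nM to universal all-10-mer Agilent arrays made double-stranded by primer extension. Each ungapped eight-base word, pooled with its reverse complement, was scored with an E-score from the Universal PBM Analysis Suite.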
row,Sequence,PBM E-score
1,CATTCCGC,0.0576
2,ACAGCTCA,-0.119
3,TACGTAGA,0.0529
4,ATAAAAAC,0.213
5,CACCAGGC,-0.16
6,GATAGACC,-0.00068
7,TATAAGGA,0.168
8,TAAGTAGA,0.109
9,CACCTAAG,-0.00421
10,ATTGAGCC,-0.0243
11,CAGTCTCC,-0.0846
12,CCTCCTAA,-0.198
13,CAGTTTGC,0.124
14,CATAAAGG,0.00277
15,GACTACGA,-0.0664
16,GAAGCCCA,-0.181
17,GATGTACC,0.0745
18,AACCGGGC,-0.261
19,ATGATGCC,-0.0842
20,ATTCACGC,0.0462
21,CCTTTGAG,-0.131
22,CTCATATC,-0.0466
23,CCGGCAGG,-0.194
24,TATGGTCA,0.0184
25,CCGGTGCA,-0.251

row,Sequence,PBM E-score
1,AGCTGTAA,0.0402
2,ATCTCAGA,-0.021
3,CACCGATA,0.00145
4,CCCTTCAG,-0.0588
5,AGTTATGG,0.0413
6,ATCCTGGG,-0.149
7,CCATTTAG,0.00911
8,CCGATTAG,0.0861
9,AACATAAC,0.269
10,CTCGGTTA,-0.0842
11,ACGGAAGG,-0.0813
12,CACCTGGA,-0.115
13,TCTTGTAA,0.118
14,CTTACTTC,0.176
15,CGAAAGTA,0.0222
16,CTGTCCAA,0.0393
17,GGTCTGAC,-0.0516
18,CCATTTCG,-0.0106
19,GACTCGGA,-0.181
20,GGGCGCCA,-0.0677
21,CCACCCTA,0.0602
22,CCTACGAG,-0.0509
23,CCTAGAGA,-0.067
24,GATGCTCC,-0.132
25,AAAAACCC,-0.0375

row,Sequence,PBM E-score
1,CTAGTGTA,0.088
2,GCAGCTGC,-0.301
3,TCGGCGCA,0.0397
4,CCCCGAGC,-0.187
5,CTCCGGGC,-0.188
6,TCAAGCCA,-0.0356
7,CTATCAAA,0.155
8,GCGTGCCC,-0.281
9,GAAAGGTA,0.148
10,AGATGCTG,-0.098
11,AAACTAGG,-0.014
12,CTCAAAAA,0.0101
13,AGCCCTCA,-0.27
14,GCCCGTAC,-0.155
15,CCACAAAC,0.0763
16,CGTTCCAA,0.0781
17,TAAGAAAA,0.156
18,GGTCCCCA,-0.272
19,GTTGAACA,-0.038
20,AACTTCGG,0.13
21,CGCAACGA,0.0228
22,ATTTCAGA,0.0687
23,GTTTCATA,0.0741
24,TTCGGCAA,0.0318
25,CAGATGCG,-0.101

row,Sequence,PBM E-score
1,ACCGGGTC,-0.17
2,CGGCGTAG,-0.213
3,ACATTTAC,0.0976
4,ACAATTGC,0.0787
5,CTACGATC,-0.0231
6,ACTCGACA,0.0738
7,CTTTATAA,0.206
8,ACTGGTAT,0.0087
9,CTCTGTCA,-0.0299
10,ATTCAGAC,0.187
11,CCTAGTGA,-0.201
12,CGTTTTTA,0.153
13,GGGCATAC,-0.18
14,CTAAAGGC,-0.135
15,GGTCTGCA,-0.0699
16,AAAGGGAC,-0.0721
17,ATTTCGGG,0.00062
18,ACGCTCAT,0.159
19,CGCTACGC,-0.273
20,ATGCACAC,0.044
21,AATTCGTG,0.0072
22,CGAACTTC,0.0985
23,CATGATAG,0.165
24,CCTTGCTC,-0.0483
25,CAAAGCGA,0.0238

row,Sequence,PBM E-score
1,AACGAGAG,0.0783
2,TAGAGCTA,-0.0728
3,AATACGGA,0.154
4,GGCGCCTA,-0.145
5,CTTTGTTC,0.0752
6,AAGGGTGT,0.0156
7,AGATTAAT,0.194
8,CCCACGGA,-0.256
9,ATGGTACG,0.192
10,GGTCTCAC,-0.0968
11,CTCGGACC,-0.0993
12,GAATAATC,0.217
13,ACCCCAGA,-0.0923
14,AGCTGCCG,-0.0538
15,ACCCGCCA,-0.0128
16,AGACCCAG,-0.0787
17,GTCTACAA,-0.035
18,AACCGTAA,0.0667
19,GTCTGAAA,0.0573
20,CAGATTAA,0.111
21,CAGCCTGC,-0.218
22,CTAAGCGC,-0.012
23,CCGTTCCG,0.0238
24,CGATGTAC,0.118
25,AAGGACGG,-0.175

# At a glance, part of the list above.
row,Sequence,PBM E-score
24,TTCGGCAA,0.0318
25,CAGATGCG,-0.101
1,ACCGGGTC,-0.17
2,CGGCGTAG,-0.213
3,ACATTTAC,0.0976
4,ACAATTGC,0.0787
5,CTACGATC,-0.0231
6,ACTCGACA,0.0738
7,CTTTATAA,0.206
8,ACTGGTAT,0.0087
9,CTCTGTCA,-0.0299
10,ATTCAGAC,0.187
11,CCTAGTGA,-0.201
12,CGTTTTTA,0.153
13,GGGCATAC,-0.18
14,CTAAAGGC,-0.135
15,GGTCTGCA,-0.0699
16,AAAGGGAC,-0.0721
17,ATTTCGGG,0.00062
18,ACGCTCAT,0.159
19,CGCTACGC,-0.273
20,ATGCACAC,0.044
21,AATTCGTG,0.0072
22,CGAACTTC,0.0985
23,CATGATAG,0.165
24,CCTTGCTC,-0.0483
25,CAAAGCGA,0.0238
1,AACGAGAG,0.0783
2,TAGAGCTA,-0.0728
3,AATACGGA,0.154
4,GGCGCCTA,-0.145
5,CTTTGTTC,0.0752
6,AAGGGTGT,0.0156
7,AGATTAAT,0.194
8,CCCACGGA,-0.256
9,ATGGTACG,0.192
10,GGTCTCAC,-0.0968
11,CTCGGACC,-0.0993
12,GAATAATC,0.217
13,ACCCCAGA,-0.0923
14,AGCTGCCG,-0.0538
15,ACCCGCCA,-0.0128
16,AGACCCAG,-0.0787
17,GTCTACAA,-0.035
18,AACCGTAA,0.0667
19,GTCTGAAA,0.0573
20,CAGATTAA,0.111
21,CAGCCTGC,-0.218
22,CTAAGCGC,-0.012
23,CCGTTCCG,0.0238
24,CGATGTAC,0.118

# (next part)

row,Sequence,PBM E-score
1,ACAAGCAA,0.131
2,GGATTTAA,0.16
3,ACCGGAAA,0.0324
4,CTGTGATC,0.046
5,TGGCGGAA,-0.231
6,TCCCCCAA,-0.235
7,GCCCATAC,-0.0143
8,AAATCTAT,0.114
9,CCGACCAG,-0.0682
10,TGCTGCAA,0.176
11,CTACTCGC,0.0558
12,ATAGGTGA,0.0245
13,GATTATAC,0.153
14,AAGCCAGG,-0.143
15,ATCCCCGC,-0.0433
16,CATGACTC,-0.0941
17,CTGGTGCA,-0.146
18,CAGAGCAA,-0.0103
19,CCGGAACC,-0.236
20,ATAAGACC,0.0584
21,CAGCCAGC,-0.157
22,CGCCCTAA,-0.135
23,ATAATCTA,0.229
24,GGCGTCCC,-0.221
25,CTGTCCCC,-0.126

row,Sequence,PBM E-score
1,GACACCAA,0.1
2,AACCTTGA,0.124
3,CGCCGGAA,-0.112
4,ACCGGCCT,-0.185
5,CAGAAGTC,-0.0217
6,TATAGCAA,0.0906
7,GACTGTCA,-0.14
8,CAAGGGAA,-0.0707
9,CTTTAATC,0.152
10,CATACGTC,0.0447
11,AGTGAACC,0.0895
12,CACGAAAG,0.0991
13,ACCGCGCC,-0.0196
14,GTCTTAAA,-0.035
15,ATTGCCGG,-0.0327
16,CAGCGCAC,-0.228
17,AGGCTCGG,-0.151
18,TATTGGAA,0.00926
19,ACTTTACA,0.052
20,CGCTCTAC,0.117
21,CGGATAAA,0.208
22,CCCGACTA,-0.102
